{
  "sequences": {"note": "Protein sequences, listed by entry. Tags and fused reporters are not part of them. Residues count along the entry.", "UniProt Q9QUK6, residues 26-835": "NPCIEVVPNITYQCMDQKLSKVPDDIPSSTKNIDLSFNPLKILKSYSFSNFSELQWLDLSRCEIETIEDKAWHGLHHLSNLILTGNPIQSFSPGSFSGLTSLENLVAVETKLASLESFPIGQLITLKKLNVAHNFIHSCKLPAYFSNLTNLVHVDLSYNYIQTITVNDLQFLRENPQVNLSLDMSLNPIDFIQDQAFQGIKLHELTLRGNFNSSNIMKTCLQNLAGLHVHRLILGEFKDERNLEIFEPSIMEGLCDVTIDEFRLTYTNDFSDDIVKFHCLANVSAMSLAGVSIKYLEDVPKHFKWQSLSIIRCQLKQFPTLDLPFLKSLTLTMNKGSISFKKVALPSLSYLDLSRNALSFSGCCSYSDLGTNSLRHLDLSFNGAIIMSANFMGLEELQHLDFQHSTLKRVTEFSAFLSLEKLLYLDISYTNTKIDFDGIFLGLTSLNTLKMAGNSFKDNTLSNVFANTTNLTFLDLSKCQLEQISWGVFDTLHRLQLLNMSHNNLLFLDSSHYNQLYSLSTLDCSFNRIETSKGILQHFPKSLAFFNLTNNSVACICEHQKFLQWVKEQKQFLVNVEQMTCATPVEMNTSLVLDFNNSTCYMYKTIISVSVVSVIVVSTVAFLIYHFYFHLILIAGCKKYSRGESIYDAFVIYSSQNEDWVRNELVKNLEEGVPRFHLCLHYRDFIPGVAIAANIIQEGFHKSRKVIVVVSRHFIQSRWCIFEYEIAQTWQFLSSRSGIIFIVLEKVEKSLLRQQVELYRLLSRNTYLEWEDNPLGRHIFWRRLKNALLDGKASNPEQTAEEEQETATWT", "UniProt P63158": "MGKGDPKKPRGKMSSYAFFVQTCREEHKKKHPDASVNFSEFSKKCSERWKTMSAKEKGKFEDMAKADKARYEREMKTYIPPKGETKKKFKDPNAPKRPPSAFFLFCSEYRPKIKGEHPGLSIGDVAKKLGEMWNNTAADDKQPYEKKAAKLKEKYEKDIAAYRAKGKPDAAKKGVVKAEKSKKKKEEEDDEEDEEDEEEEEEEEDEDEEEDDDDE"},
  "source": "paper PMC12504543",
  "molecular_target": "toll-like receptor 4 (TLR4) (UniProt Q9QUK6)",
  "test": "co-IP; Co-immunoprecipitation of HMGB1 and TLR4, without and with rhLCN2 at rising concentrations; cells, bait and conditions not shown (supplementary methods)",
  "note": "Results are given in words; binding and its absence hold for the method and conditions named. Binding seen in cells or lysates may run through a third protein. Some entries that bind do so weakly or less than the wild type.",
  "data": [
    {"substance": "High-mobility group box 1 (HMGB1) (from UniProt P63158 1-215)", "values": [
      {"measurement": "binding", "value": "binds"}
    ]}
  ]
}
